Measured values as given in paper PMC4909395.

Protein sequences, listed by entry. Tags and fused reporters are not part of them.
UniProt P78527: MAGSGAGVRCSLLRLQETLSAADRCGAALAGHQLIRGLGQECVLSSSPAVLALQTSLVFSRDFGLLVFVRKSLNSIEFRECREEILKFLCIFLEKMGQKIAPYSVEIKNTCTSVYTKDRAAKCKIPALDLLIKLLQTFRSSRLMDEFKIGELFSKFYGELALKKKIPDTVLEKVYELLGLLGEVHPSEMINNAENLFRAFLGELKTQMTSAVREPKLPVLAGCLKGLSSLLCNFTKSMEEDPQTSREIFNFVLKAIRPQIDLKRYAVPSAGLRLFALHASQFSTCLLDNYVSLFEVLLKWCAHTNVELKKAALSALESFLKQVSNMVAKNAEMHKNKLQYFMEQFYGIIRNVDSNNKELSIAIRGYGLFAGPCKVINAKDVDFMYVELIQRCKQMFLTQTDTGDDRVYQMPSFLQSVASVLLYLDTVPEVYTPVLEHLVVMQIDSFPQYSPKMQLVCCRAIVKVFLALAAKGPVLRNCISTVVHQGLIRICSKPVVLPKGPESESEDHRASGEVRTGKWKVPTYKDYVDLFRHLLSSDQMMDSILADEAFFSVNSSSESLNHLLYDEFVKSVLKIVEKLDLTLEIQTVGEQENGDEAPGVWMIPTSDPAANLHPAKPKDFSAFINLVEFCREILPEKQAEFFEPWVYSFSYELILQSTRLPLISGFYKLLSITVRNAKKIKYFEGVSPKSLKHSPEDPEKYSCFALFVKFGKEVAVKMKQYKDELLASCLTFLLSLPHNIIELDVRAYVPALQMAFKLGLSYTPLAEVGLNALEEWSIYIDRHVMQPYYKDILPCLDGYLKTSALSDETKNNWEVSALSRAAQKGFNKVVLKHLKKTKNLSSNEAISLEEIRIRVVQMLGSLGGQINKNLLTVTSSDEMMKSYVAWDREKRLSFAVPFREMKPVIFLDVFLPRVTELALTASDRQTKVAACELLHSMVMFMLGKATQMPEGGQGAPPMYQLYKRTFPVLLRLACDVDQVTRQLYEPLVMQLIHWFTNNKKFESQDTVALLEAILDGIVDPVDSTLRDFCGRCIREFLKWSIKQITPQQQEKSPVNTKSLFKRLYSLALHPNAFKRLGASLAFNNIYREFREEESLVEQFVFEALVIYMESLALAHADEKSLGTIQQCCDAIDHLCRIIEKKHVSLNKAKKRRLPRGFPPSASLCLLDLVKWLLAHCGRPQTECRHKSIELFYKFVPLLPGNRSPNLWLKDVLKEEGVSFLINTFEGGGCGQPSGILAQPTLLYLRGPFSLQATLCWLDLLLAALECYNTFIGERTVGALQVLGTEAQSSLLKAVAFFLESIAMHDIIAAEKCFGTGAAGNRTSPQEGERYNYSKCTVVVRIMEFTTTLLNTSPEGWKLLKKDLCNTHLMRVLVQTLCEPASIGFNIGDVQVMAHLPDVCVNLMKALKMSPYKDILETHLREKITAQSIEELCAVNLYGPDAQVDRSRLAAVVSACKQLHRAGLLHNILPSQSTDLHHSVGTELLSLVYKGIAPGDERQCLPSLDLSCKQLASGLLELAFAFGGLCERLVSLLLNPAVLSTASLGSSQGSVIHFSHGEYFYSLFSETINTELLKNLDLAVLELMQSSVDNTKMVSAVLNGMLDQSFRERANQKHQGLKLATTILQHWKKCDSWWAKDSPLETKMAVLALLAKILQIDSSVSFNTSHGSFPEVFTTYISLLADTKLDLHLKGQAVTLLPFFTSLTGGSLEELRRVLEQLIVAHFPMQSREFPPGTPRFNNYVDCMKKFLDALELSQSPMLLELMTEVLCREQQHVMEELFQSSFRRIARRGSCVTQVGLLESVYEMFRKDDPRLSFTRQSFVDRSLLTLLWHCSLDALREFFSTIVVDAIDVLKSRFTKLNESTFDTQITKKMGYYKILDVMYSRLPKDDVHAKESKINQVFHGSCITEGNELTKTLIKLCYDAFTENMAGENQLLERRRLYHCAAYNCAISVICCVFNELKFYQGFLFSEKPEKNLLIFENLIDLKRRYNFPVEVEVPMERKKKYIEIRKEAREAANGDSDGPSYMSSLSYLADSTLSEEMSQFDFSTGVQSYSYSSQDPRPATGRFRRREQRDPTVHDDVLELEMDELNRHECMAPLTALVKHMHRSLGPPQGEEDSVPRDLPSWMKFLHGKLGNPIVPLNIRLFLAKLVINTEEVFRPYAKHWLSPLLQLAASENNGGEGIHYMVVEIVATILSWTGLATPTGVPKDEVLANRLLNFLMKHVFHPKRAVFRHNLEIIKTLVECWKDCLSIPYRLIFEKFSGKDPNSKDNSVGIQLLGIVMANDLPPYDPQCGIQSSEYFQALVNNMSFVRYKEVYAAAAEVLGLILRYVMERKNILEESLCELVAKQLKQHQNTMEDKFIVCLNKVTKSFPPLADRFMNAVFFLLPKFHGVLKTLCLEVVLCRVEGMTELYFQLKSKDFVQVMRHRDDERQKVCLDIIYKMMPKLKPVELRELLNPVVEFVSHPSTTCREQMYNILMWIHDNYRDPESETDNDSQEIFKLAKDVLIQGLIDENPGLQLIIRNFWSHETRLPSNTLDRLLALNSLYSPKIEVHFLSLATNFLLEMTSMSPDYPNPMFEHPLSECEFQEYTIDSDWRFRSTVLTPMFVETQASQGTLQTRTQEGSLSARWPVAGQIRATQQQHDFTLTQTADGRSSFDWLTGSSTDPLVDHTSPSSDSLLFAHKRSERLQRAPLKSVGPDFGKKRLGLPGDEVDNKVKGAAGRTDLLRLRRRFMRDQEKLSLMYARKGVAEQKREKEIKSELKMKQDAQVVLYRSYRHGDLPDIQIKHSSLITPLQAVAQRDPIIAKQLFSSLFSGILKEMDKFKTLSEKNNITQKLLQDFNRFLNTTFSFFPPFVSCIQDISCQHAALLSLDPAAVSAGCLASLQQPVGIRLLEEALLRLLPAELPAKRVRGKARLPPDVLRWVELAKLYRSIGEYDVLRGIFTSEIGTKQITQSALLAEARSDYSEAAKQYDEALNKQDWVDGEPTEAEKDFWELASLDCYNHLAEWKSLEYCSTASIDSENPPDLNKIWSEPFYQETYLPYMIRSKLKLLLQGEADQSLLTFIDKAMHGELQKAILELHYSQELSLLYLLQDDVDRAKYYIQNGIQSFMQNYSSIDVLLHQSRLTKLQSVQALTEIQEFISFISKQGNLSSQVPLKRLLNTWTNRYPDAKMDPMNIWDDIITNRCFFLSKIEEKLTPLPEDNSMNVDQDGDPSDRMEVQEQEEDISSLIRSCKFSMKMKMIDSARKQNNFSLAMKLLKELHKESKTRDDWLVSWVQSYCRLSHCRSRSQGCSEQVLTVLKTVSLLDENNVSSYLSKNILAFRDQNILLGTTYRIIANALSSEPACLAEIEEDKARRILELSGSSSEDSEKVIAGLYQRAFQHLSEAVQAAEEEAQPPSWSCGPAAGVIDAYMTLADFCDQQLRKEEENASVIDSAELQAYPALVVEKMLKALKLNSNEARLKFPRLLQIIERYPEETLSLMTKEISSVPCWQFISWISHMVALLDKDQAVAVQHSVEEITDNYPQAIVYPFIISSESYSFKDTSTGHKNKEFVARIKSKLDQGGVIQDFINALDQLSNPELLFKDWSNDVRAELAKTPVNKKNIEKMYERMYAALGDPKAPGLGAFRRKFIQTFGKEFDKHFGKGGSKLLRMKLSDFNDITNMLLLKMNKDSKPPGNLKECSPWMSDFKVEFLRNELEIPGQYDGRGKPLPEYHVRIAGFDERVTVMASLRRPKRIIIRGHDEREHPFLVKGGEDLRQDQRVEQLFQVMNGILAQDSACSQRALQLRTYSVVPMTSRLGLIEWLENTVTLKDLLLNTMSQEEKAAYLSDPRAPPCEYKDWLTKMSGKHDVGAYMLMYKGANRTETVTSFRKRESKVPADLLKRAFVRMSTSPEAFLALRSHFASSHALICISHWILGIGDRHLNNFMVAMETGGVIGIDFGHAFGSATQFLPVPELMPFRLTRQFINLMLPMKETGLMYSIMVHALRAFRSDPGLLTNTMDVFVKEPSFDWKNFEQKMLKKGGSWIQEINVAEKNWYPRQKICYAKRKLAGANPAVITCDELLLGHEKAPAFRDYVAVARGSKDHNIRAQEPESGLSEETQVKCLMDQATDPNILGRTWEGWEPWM
UniProt O14744: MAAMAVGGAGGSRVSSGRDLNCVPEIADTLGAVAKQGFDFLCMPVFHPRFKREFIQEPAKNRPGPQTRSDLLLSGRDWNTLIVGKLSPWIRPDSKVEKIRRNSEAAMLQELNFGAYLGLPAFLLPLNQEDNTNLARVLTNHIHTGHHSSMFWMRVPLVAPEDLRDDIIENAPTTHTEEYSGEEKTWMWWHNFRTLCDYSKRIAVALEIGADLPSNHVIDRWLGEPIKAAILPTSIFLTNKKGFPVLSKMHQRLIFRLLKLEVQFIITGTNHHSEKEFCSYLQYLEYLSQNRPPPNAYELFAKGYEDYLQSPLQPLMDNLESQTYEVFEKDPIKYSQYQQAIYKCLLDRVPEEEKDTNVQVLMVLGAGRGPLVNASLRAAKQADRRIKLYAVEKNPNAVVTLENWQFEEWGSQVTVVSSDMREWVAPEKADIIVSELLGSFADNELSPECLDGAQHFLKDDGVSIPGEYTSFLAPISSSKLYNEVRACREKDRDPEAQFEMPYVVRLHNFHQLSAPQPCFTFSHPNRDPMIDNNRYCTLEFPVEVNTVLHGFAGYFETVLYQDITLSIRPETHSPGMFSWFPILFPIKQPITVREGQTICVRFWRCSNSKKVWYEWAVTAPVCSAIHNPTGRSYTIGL

Target: T1, ERG (endogenous, from TMPRSS2:ERG-positive VCaP cells) (human (endogenous in VCaP)) (UniProt P11308)
T1 sequence: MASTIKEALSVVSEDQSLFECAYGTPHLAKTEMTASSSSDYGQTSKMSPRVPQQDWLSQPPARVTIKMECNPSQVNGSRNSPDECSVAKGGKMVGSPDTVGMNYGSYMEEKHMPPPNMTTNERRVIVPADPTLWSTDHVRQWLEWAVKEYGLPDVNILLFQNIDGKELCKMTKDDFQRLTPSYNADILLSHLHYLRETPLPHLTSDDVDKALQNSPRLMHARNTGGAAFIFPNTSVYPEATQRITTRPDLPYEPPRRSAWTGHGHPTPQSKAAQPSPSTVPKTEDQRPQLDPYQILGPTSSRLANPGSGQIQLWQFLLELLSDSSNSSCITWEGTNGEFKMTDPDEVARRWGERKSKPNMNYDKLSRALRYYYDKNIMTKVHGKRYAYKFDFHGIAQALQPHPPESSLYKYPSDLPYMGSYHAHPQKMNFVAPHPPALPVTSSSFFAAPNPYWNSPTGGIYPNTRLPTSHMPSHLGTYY
Assay: affinity purification with mass spectrometry; nuclear extracts of VCaP cells (~600 million cells), pre-cleared; ERG antibody (Santa Cruz #353) or anti-rabbit IgG pre-coupled to beads; elution at pH 2.5; gel lanes digested, LC-MS/MS

Substance	binding
Androgen Receptor (endogenous, VCaP cells) (from UniProt P10275-1 1-920)	binds
DNA-PKcs (endogenous, VCaP cells) (from UniProt P78527 1-4128)	binds
PRMT5 (endogenous) (from UniProt O14744 1-637) (enzyme)	binds

No constants are given. Whether binding was seen depends on the method and setting. In cells and extracts the contact can be indirect. A yes stands for co-enrichment or nearness to the bait. Other partners may have been found.
